# Laboratory results from paper PMC5077136.
# The chains behind the UniProt entries cited, without tags or fusion partners.
# UniProt G5ECU1: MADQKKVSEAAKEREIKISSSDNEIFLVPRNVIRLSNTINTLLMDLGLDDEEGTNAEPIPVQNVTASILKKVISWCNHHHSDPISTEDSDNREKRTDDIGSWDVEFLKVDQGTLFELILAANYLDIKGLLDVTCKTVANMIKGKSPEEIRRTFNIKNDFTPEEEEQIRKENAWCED
# Results are given in words; binding and its absence hold for the method and conditions named. In cells and extracts the contact can be indirect. Some entries that bind do so weakly or less than the wild type. Sequences can lack the tags named with a protein.
# Molecular target: T1, GST-WDR23a fusion protein (C. elegans) (UniProt P90794)
# T1 sequence: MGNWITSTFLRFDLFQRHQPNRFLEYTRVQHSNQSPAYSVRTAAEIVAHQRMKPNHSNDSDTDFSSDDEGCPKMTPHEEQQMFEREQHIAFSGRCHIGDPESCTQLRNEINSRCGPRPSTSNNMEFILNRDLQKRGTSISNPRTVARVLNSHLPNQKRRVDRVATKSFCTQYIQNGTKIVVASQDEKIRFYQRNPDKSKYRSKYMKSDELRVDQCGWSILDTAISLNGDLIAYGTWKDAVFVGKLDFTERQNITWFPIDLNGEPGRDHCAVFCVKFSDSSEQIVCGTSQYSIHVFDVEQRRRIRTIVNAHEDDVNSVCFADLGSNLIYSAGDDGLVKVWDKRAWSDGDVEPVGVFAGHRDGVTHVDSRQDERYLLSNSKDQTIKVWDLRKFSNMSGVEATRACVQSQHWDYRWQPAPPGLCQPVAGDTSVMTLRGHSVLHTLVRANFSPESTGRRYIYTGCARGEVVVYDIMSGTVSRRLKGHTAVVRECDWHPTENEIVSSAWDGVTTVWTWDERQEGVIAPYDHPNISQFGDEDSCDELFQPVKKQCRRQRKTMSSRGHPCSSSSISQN
# Assay: pull-down; HEK293 cells co-transfected with the GST fusion and V5-SKR-1; lysed two days after transfection; glutathione-Sepharose 4B at room temperature for 1 h; washed with PBS+0.1% Triton-X; blot with anti-V5 mAb
substance,measurement,value
V5-SKR-1 fusion protein (from UniProt G5ECU1 1-176),binding,binds
